Data taken from ChEMBL document CHEMBL3988442, “University of Dundee, Small-Polar-MMV Screening Library” (2021).

Chains of the proteins cited; added tags and fusions are not shown. Residues count along the entry.
UniProt A4I591, 1-473: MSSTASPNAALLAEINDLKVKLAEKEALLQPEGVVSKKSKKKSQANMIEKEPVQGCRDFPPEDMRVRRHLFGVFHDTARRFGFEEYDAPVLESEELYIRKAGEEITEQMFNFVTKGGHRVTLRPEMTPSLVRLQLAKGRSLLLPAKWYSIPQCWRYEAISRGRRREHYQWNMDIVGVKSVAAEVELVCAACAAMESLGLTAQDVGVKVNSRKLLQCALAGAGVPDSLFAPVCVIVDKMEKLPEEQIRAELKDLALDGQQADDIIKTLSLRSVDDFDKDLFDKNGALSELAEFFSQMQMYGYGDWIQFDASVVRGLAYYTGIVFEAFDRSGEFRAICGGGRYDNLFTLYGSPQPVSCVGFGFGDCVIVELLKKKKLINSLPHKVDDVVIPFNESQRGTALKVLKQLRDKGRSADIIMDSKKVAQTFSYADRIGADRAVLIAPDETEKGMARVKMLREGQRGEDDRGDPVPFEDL
UniProt P9WFT3, whole entry: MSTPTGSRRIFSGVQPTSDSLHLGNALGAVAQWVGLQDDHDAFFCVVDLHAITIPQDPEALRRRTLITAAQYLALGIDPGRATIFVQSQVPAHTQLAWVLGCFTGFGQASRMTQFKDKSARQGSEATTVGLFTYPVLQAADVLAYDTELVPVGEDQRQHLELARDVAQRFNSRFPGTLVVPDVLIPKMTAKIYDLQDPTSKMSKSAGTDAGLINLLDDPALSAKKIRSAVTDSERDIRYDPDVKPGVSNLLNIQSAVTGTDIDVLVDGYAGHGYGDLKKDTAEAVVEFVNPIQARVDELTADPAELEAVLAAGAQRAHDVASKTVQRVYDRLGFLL
UniProt P9WNZ1, whole entry: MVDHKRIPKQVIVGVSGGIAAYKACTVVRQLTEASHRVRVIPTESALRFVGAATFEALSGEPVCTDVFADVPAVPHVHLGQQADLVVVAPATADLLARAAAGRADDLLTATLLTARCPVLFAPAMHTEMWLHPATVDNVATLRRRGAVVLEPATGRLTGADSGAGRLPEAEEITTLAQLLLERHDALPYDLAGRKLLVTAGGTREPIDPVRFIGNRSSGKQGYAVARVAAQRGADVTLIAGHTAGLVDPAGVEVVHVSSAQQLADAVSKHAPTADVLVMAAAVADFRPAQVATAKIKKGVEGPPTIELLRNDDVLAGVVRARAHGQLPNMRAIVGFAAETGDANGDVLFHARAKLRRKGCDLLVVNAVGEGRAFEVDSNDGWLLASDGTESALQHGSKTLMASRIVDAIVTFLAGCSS

A: 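Enzyme assay of histidyl-tRNA synthetase; the read-out is not stated. Target: Histidine-tRNA ligase, Leishmania infantum (UniProt A4I591). Concentration: 30 µM. The record gives no direction; compounds that gave an IC50 in retests scored well above the rest, so higher reads as stronger inhibition. The assay is labelled LdHisRS but filed under L. infantum. Of about 69,000 compounds tested this way, about 410 (0.6%) reached 50% or more in at least one test.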
B: 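Tryptophan-tRNA ligase, Mycobacterium tuberculosis (UniProt P9WFT3). Enzyme assay of tryptophanyl-tRNA synthetase; the read-out is not stated. Compounds at 10 µM. Higher most likely means stronger inhibition; the record gives no direction and few retests gave an IC50. About 65,000 compounds were tested under these conditions; 0.098% (about 64) showed 50% or more at least once.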
C: 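Coenzyme A biosynthesis protein CoaBC, Mycobacterium tuberculosis (UniProt P9WNZ1). Enzyme assay of CoaBC with a phosphate dye (Biomol Green) read at 650 nm. Tested at 30 µM. Higher reads as stronger inhibition, judged from the few compounds that gave an IC50. Most strong results did not repeat in a second test. About 67,000 compounds were tested under these conditions; 0.06% (about 40) showed 50% or more at least once.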

The filed quantity is “Percent Effect” (%).
The record does not define 0% and 100%; most values in the screen are far below 50% and negative numbers occur (in some assays of this library far below -100).
This is an unselected part of the compounds tested.

{"compound": "C[C@H]1C[C@@H]2CCN(CC3CCOCC3)C[C@H]2O1", "A": 20, "B": -0.5489, "C": 9.221}
{"compound": "CC(C)c1nnsc1CNC(=O)C1CCCN(C(=O)N(C)C)C1", "stereo": "centres undefined", "A": 12.05, "B": -4.392, "C": 7.767}
{"compound": "CC(C)(C)C(=O)NCCC(=O)N1CCC(Nc2cccnn2)CC1", "A": 0.8929, "B": -5.503, "C": 2.682}
{"compound": "Cc1ccccc1-n1c(C)cc(C(=O)N2CCn3c(C)nnc3C2)c1C", "A": 0.8772, "B": -5.009, "C": 1.956}
{"compound": "CC(C)n1c(=O)c2sccc2n(CC(=O)Nc2cccc(Cl)c2)c1=O", "A": -1.379, "B": -3.025, "C": -0.5263}
{"compound": "O=C(Nc1ccc(F)c(-n2cccc2)c1)NC1(CCO)CCOCC1", "A": 0, "B": -7.143, "C": 2.823}
{"compound": "CC(C)NC(=O)[C@H]1C[C@@H]2CN(C(=O)NC(C)C)C[C@H]1O2", "A": 10, "B": -11.37, "C": 2.709}
{"compound": "COC(=O)[C@H](C)NC(=O)COc1nn(C)c2nc(C)cc(C)c12", "A": 6.122, "B": 0.4388, "C": -0.2296}
{"compound": "CNc1ccc(C2CN(c3cc(C)ncn3)CCO2)nc1", "stereo": "centres undefined", "A": 19.58, "B": 9.073, "C": -8.717}
{"compound": "NCCc1cn(Cc2ccccn2)c2ccccc12", "A": 1.98, "C": 4.126}
{"compound": "Cc1cc(CN(C)C(=O)NCC2CCS(=O)(=O)C2)no1", "stereo": "centres undefined", "A": 6.612, "B": -5.126, "C": 16.63}
{"compound": "CC(C)NC(=O)N1CCC(c2nnc3ccc(C(=O)N(C)C)cn23)C1", "stereo": "centres undefined", "A": 6, "B": -3.843, "C": -9.631}
{"compound": "Cn1cc(CN2CCCCC2c2ccc(-c3cccc(Cl)c3)nc2)cn1", "stereo": "centres undefined", "A": 15.71, "B": -7.541, "C": 1.942}
{"compound": "Cc1cccn2cc(CC(=O)N3CCCC(n4cncn4)C3)nc12", "stereo": "centres undefined", "A": -21.28, "B": 3.489, "C": 5.181}
{"compound": "Cc1cccc(OC2CCN(C(=O)CNC(=O)N(C)C)CC2)c1", "A": 30.14, "B": 2.082, "C": -24.55}
{"compound": "CC(C)OC[C@H]1CCC[C@]12CN(S(=O)(=O)c1cccs1)CCO2", "A": 1.709, "B": -5.136}
{"compound": "Cc1cnc(-c2nc(O)c3c(n2)CN(C(=O)C2CCCO2)CC3)cn1", "stereo": "centres undefined", "A": 4.255, "B": -0.07807, "C": -2.331}
{"compound": "Cc1cccc(N(CC(=O)N2CCCCC2)Cc2ccno2)c1", "A": 5.263, "B": -3.015, "C": -4.032}
{"compound": "O=C(CCc1ccco1)N1CCCN(Cc2cscn2)CC1", "A": 24.56, "B": 11.03, "C": 3.354}
{"compound": "Cc1c(Cl)c(C(=O)N2CC[C@H](N3CCOCC3)[C@H](CCCO)C2)nn1C", "A": 5.263, "B": 1.106, "C": 1.089}
{"compound": "Cc1cc(C)n(C2CN(CC(O)c3ccc(S(C)(=O)=O)cc3)C2)n1", "stereo": "centres undefined", "A": 12.5, "B": -10.12, "C": 6.818}
{"compound": "CCOc1ccccc1C(N)CC(C)C", "stereo": "centres undefined", "A": -4, "B": -1.037, "C": -4.455}
{"compound": "O=S(=O)(C1CC1)N1CCC2(COCc3cnc(-c4cccnc4)nc32)C1", "stereo": "centres undefined", "A": 0.9091, "C": 4.444}
{"compound": "N#Cc1cccnc1NCCNC(=O)NCCSC(F)(F)F", "A": 11.61, "B": -1.398, "C": 10.32}
{"compound": "Cc1cc(-c2cc(N)c(=O)n(CC(=O)NCC3CCCCC3)n2)c(C)o1", "A": 22, "C": 6.32}
{"compound": "Cc1noc(C2CCN(C(C)c3nc(C(C)(C)C)no3)CC2)n1", "stereo": "centres undefined", "A": 10, "B": 1.068, "C": 8.293}
{"compound": "O=c1ccc(-c2cccs2)nn1CN1CCN(c2ccccn2)CC1", "A": 18.42, "B": -2.451, "C": 4.293}
{"compound": "CC(O)CN1CCN(C(=O)c2ccc3c(c2)COC3)CC1", "stereo": "centres undefined", "A": -41.57, "B": -3.855, "C": -1.285}
{"compound": "Nc1ncccc1C(=O)NCc1ccc(Br)cc1", "A": 16.55, "B": -1.296, "C": 4.211}
{"compound": "COc1ccc(-c2nc3c([nH]2)CCNC3C(=O)O)c2ccccc12", "stereo": "centres undefined", "A": 6.25, "B": -6.225, "C": 6.17}
{"compound": "CC(NC(=O)CCS(=O)(=O)C1CCCC1)c1nc(-c2ccccc2)c[nH]1", "stereo": "centres undefined", "A": 15.04, "B": 0.7227, "C": -0.2336}
{"compound": "COc1ncc(C(=O)NCc2ccc(Br)cc2)cn1", "A": 13.56, "B": -1.656, "C": 4.642}
{"compound": "CN(Cc1cccc(C(N)=O)c1)CC1CCCN1c1cccnn1", "stereo": "centres undefined", "A": 18.58, "B": -4.639, "C": 1.567}
{"compound": "COc1ccc(Cn2cc(C(=O)N(C)CCN(C)C)nn2)cc1", "A": 12.09, "B": 2.309, "C": 9.198}
{"compound": "O=C(OCC1CCN(c2ccccc2)C1)c1cscn1", "stereo": "centres undefined", "A": 22.22, "B": 6.041, "C": 1.665}

Some entries from above, unchanged:

Cc1cnc(-c2nc(O)c3c(n2)CN(C(=O)C2CCCO2)CC3)cn1 (centres undefined) read A: 4.255%; B: -0.07807%; C: -2.331%.
CC(C)(C)C(=O)NCCC(=O)N1CCC(Nc2cccnn2)CC1 read A: 0.8929%; B: -5.503%; C: 2.682%.